Taken from: PubChem BioAssay AID504764 (Drosophila RNAi Screening Center, 2011)

Assay: 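Knock-downs that raise or lower a Notch target reporter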 (primary screen)
Cell system: Drosophila Kc167 cells
Reagents: long dsRNA against Drosophila genes
Duration: about 5 days (4 days dsRNA, then 24 h after transfection)
Conditions: transfection of constitutively active membrane-tethered Notch lacking the extracellular domain, read 24 h later
Measurement: 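Firefly luciferase from an E(spl)m3 reporter with active Notch, plus control-promoter and uninduced reporter wells for normalisation; unnormalised counts, duplicate wells a and b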
Reading the numbers: induced reporter light, run 1, well a and induced reporter light, run 1, well b: higher = more light from the Notch target reporter with active Notch; control promoter light, run 1, well a and control promoter light, run 1, well b: higher = more light from the viral control promoter (cell number, transfection, viability); uninduced reporter light, run 1, well a: higher = more light from the Notch target reporter without active Notch
Active means: 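Hit if the duplicate-averaged log2 ratio of induced to control-promoter light gives a plate-wise z beyond ±2, or induced to uninduced beyond ±1.8; weak-control or discordant-duplicate wells dropped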
Calls: active = modifier hit (raised or lowered Notch signal); inactive = not a hit
In all, the deposit lists about 22,000 reagents; below is a random part of those with a known target gene and a result. In the full data, 403 (1.9%) are marked active. 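Unnormalised raw counts per well; ratio z-scores behind the hit calls and whether each hit raises or lowers signal are not deposited.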 A plus sign joins genes that one reagent is predicted to hit. The record does not give: the amount of reagent.

predicted target	dsRNA	induced reporter light, run 1, well a	induced reporter light, run 1, well b	control promoter light, run 1, well a	control promoter light, run 1, well b	uninduced reporter light, run 1, well a	Outcome
eIF1A (eukaryotic translation initiation factor 1A)	DRSC16937	68205	53840	75435	71615	4015	inactive
RpS6 (Ribosomal protein S6)	DRSC18712	4830	4500	6875	8275	340	inactive
Cp15 (Chorion protein 15)	DRSC11118	2.12e5	1.67e5	1.95e5	1.85e5	9255	inactive
Nup98-96 (Nucleoporin 98-96kD)	DRSC14209	1.81e5	1.65e5	1.89e5	2.21e5	12230	inactive
Nup98-96 (Nucleoporin 98-96kD)	DRSC14210	69895	60155	81590	70160	7095	inactive
CG9986	DRSC16586	1.63e5	1.58e5	2.25e5	2.07e5	12045	inactive
CG31195	DRSC13440	65445	55240	82530	69760	8065	inactive
beta-Man (beta-Mannosidase)	DRSC12208	1.38e5	92045	69740	71765	8910	inactive
beta-Man (beta-Mannosidase)	DRSC12209	1.46e5	1.24e5	1.39e5	1.06e5	9080	inactive
Nop17l (Nop17 like)	DRSC06556	2.64e5	1.71e5	1.57e5	1.83e5	19160	inactive
CG30431	DRSC04902	1.98e5	2.03e5	1.68e5	1.73e5	13610	inactive
CG30431	DRSC04904	1.50e5	1.48e5	1.57e5	1.45e5	9700	inactive
TwdlR (TweedleR)	DRSC14736	1.64e5	1.19e5	2.12e5	2.19e5	13185	inactive
Ras64B (Ras oncogene at 64B)	DRSC08689	1.29e5	1.04e5	1.70e5	1.52e5	11990	inactive

Quoted from above, 5 entries:
predicted target	dsRNA	induced reporter light, run 1, well a	induced reporter light, run 1, well b	control promoter light, run 1, well a	control promoter light, run 1, well b	uninduced reporter light, run 1, well a	Outcome
CG9986	DRSC16586	1.63e5	1.58e5	2.25e5	2.07e5	12045	inactive
CG31195	DRSC13440	65445	55240	82530	69760	8065	inactive
beta-Man (beta-Mannosidase)	DRSC12208	1.38e5	92045	69740	71765	8910	inactive
beta-Man (beta-Mannosidase)	DRSC12209	1.46e5	1.24e5	1.39e5	1.06e5	9080	inactive
Nop17l (Nop17 like)	DRSC06556	2.64e5	1.71e5	1.57e5	1.83e5	19160	inactive

The results go on:
predicted target	dsRNA	induced reporter light, run 1, well a	induced reporter light, run 1, well b	control promoter light, run 1, well a	control promoter light, run 1, well b	uninduced reporter light, run 1, well a	Outcome
AGO1 (Argonaute-1)	DRSC05912	1.12e5	1.12e5	1.60e5	1.34e5	9465	inactive
CG13032	DRSC09912	36950	31925	39595	49660	1840	inactive
lncRNA:sphinx + ATPsynF	DRSC17191	51005	66535	87840	79450	4615	inactive
Ist1	DRSC09697	1.43e5	1.71e5	1.04e5	77090	14005	inactive
Cpsf6 (Cleavage and polyadenylation specific factor 6)	DRSC10781	12565	8880	8835	3820	1182	inactive
CG3795	DRSC18593	1.50e5	1.41e5	1.83e5	1.82e5	11970	inactive
LSm1 (Like Sm 1)	DRSC04458	45605	39815	49495	43675	2900	inactive
CG32206	DRSC09602	2.13e5	2.63e5	2.09e5	2.42e5	16455	inactive
CG32206	DRSC10094	1.92e5	1.38e5	91540	1.14e5	8710	inactive
CG32206	DRSC10095	1.31e5	87090	94395	70175	6340	inactive
CG32206	DRSC10096	97015	67730	80215	65335	6645	inactive
CG32206	DRSC11080	1.07e5	92100	81905	72450	9490	inactive
CG13403	DRSC19535	57295	52120	84325	58770	8525	inactive
Sps1 (Selenophosphate synthetase 1)	DRSC07549	1.81e5	1.40e5	2.23e5	2.00e5	14735	inactive
CG7252	DRSC10789	1.18e5	1.11e5	66935	34700	9050	inactive
CG7252	DRSC21492						inactive
CG14187	DRSC10186	1.65e5	1.19e5	1.23e5	1.29e5	11805	inactive
CG30050	DRSC05342	1.68e5	1.77e5	2.53e5	2.98e5	18840	inactive
robo2 (roundabout 2)	DRSC00377	1.19e5	1.16e5	86580	53365	8050	inactive
robo2 (roundabout 2)	DRSC00378	1.05e5	1.27e5	91625	62580	10690	inactive
robo2 (roundabout 2)	DRSC00686	1.44e5	1.09e5	98510	66855	9720	inactive
robo2 (roundabout 2)	DRSC00691	1.13e5	1.27e5	79040	81785	10590	inactive
